The subject of this test is C3AKF1 mice, osteogenic sarcoma HE10734 s.c., tumor weight T/C. In words: NCI In Vivo Anticancer Drug Screen. Data for tumor model Osteogenic Sarcoma HE 10734 (subcutaneous) in C3AKF1 (CHKRF1) mice. The note with it: T/C endpoint: mean tumor weight, schedule: Q01DX010 (ip), higher T/C = larger tumour; for T/C: evaluated on day 20. On the procedure: The antitumor activity of compounds was measured in mice bearing transplantable tumors. Survival or tumor size were measured and the results are expressed as the measurement made in the treated group (T) divided by the measurement made in the vehicle treated control group (C). The tumor model used in this assay is Osteogenic Sarcoma HE 10734 (subcutaneous) in C3AKF1 (CHKRF1) mice

Setting [1] is: dose: 125.0 mg/kg/injection, vehicle: saline.
The mark [2] stands for this setting: dose: 250.0 mg/kg/injection, vehicle: saline.
Setting [3] is: dose: 500.0 mg/kg/injection, vehicle: saline.
Where [4] appears, read: dose: 1000.0 mg/kg/injection, vehicle: saline.
[5] abbreviates: dose: 200.0 mg/kg/injection, vehicle: saline.
Setting [6] is: dose: 500.0 mg/kg/injection, vehicle: carboxymethylcellulose (CMC).
[7] abbreviates: dose: 60.0 mg/kg/injection, vehicle: carboxymethylcellulose (CMC).
The mark [8] stands for this setting: dose: 120.0 mg/kg/injection, vehicle: carboxymethylcellulose (CMC).
Setting [9] is: dose: 300.0 mg/kg/injection, vehicle: saline.
Setting [10] is: dose: 450.0 mg/kg/injection, vehicle: saline.

In PubChem BioAssay AID310 (DTP/NCI, 2004) one finds T/C and survivor count data, which are given here for 32 compounds.

The list is a part of this screen's results and no random one: it is rich in T/C values a quarter to a half above the control, in often repeated tests (any T/C) and in doses without a T/C. Other doses and runs of a compound stand elsewhere. T/C is the treated group as % of the vehicle group. Schedules are NCI's codes, read here as Q, the interval in days (D) or hours (H), X, the number of doses. Some T/C values carry the count of animals alive at the toxicity check (mostly the fifth day); without a count, all were alive then. Some doses have a count of surviving animals in place of a T/C: the source holds a T/C of zero for them, seemingly a mark for toxic or unscored doses. Survivors were counted at the toxicity check, usually on the fifth day, unless a day is given; later deaths do not show. Where a SMILES comes first, the peptide text is derived from it. [ ]: non-standard residue; d: D form. Ac5c = NC1(C(=O)O)CCCC1

With `CC(CCc1cccc2ccccc12)(C(=O)O)C(=O)O`, the T/C by setting is: (dose: 80.0 mg/kg/injection, vehicle: saline) 147 % of control [5 of 7 alive]; under setting [1], 137 % of control. Also, the survivor count under setting [1] was 3 of 6, the survivor count under setting [2] was 3 of 6, the survivor count under setting [3] is recorded as 2 of 6 and the survivor count under setting [4] was 0 of 6. As to `O=P(c1ccccc1)(N1CC1)N1CC1`, the survivor count (dose: 50.0 mg/kg/injection, vehicle: saline) was 0 of 7; the survivor count (dose: 100.0 mg/kg/injection, vehicle: saline) is reported as 0 of 7; the survivor count under setting [5] is recorded as 0 of 7.

With `COc1ccc(Nc2ccnc3cc(Cl)ccc23)cc1CN(CCCl)CCCl`, the survivor count (dose: 6.0 mg/kg/injection, vehicle: saline) is 0 of 6. In the case of `CN(C)c1ccc(/C=C\c2ccnc3ccccc23)cc1`, the T/C (dose: 2.5 mg/kg/injection, vehicle: carboxymethylcellulose (CMC)) was 146 % of control. With `CCCn1cnc2c(SCc3ccccc3Cl)nc(N)nc21`, under “dose: 800.0 mg/kg/injection, vehicle: carboxymethylcellulose (CMC)”, the survivor count is reported as 1 of 6. `O=C(O)Cc1ccc(C2CCCCC2)cc1`: the survivor count (dose: 225.0 mg/kg/injection, vehicle: carboxymethylcellulose (CMC)) was 5 of 8; the survivor count (dose: 335.0 mg/kg/injection, vehicle: carboxymethylcellulose (CMC)) is given as 2 of 8; the survivor count under setting [6] is reported as 0 of 8.

Turning to `NC(N)=N/N=C/C=N/N=C(N)N`, the survivor count is 1 of 6 under setting [7]; 0 of 6 under setting [8]; 0 of 6 (dose: 240.0 mg/kg/injection, vehicle: carboxymethylcellulose (CMC)). Consider `CC(=O)Nc1ccc(NC(=O)c2ccc([As](O)O)cc2)cc1`, for which the survivor count (dose: 480.0 mg/kg/injection, vehicle: carboxymethylcellulose (CMC)) is listed as 0 of 7. For `COc1cc([C@@H]2c3cc4c(cc3[C@H](O)[C@H]3COC(=O)[C@@H]23)OCO4)cc(OC)c1OC`, the survivor count is, setting by setting: (dose: 15.0 mg/kg/injection, vehicle: saline) 2 of 7; (dose: 30.0 mg/kg/injection, vehicle: saline) 0 of 7; (dose: 60.0 mg/kg/injection, vehicle: saline) 0 of 7. Turning to `S=C(N=Nc1ccccc1)NNc1ccccc1`, the survivor count is, setting by setting: (dose: 100.0 mg/kg/injection, vehicle: carboxymethylcellulose (CMC)) 3 of 6; (dose: 150.0 mg/kg/injection, vehicle: carboxymethylcellulose (CMC)) 0 of 6. Take `CN(C)Nc1ncnc2nc[nH]c12`: the survivor count (dose: 160.0 mg/kg/injection, vehicle: saline) is on record as 2 of 7. Consider `O=C(NO)c1ccncc1`, for which the survivor count under setting [4] is 1 of 7. In the case of `N#CCSc1nc(N)nc2nc[nH]c12`, the T/C (dose: 16.0 mg/kg/injection, vehicle: carboxymethylcellulose (CMC)) is 128 % of control. Besides, under “dose: 185.0 mg/kg/injection, vehicle: carboxymethylcellulose (CMC)”, the survivor count is 1 of 7.

Take `O=C(c1ccc(C(=O)N2CC2)cc1)N1CC1`: the survivor count (dose: 25.0 mg/kg/injection, vehicle: carboxymethylcellulose (CMC)) is reported as 2 of 6. Turning to `O=C(O)c1ccc(-c2ccccc2)cc1`, the survivor count was 5 of 8 (dose: 300.0 mg/kg/injection, vehicle: carboxymethylcellulose (CMC)) and 0 of 8 (dose: 450.0 mg/kg/injection, vehicle: carboxymethylcellulose (CMC)). `CCCCCCCCCCCCCS`: the survivor count reads like this: under setting [5], 2 of 6; under setting [9], 3 of 6; under setting [10], 0 of 6. Turning to `CC1CN1C(=O)c1cc(C(=O)N2CC2C)cc(C(=O)N2CC2C)c1` (configuration not stated), the T/C (dose: 15.0 mg/kg/injection, vehicle: carboxymethylcellulose (CMC)) is 137 % of control. The survivor count (dose: 30.0 mg/kg/injection, vehicle: carboxymethylcellulose (CMC)) is given as 2 of 6; the survivor count under setting [7] was 0 of 6; the survivor count under setting [8] is listed as 0 of 6. For the compound `CCN(CC)CCN1C(=O)c2cccc3cccc(c23)C1=O`, the survivor count (dose: 200.0 mg/kg/injection, vehicle: carboxymethylcellulose (CMC)) is 0 of 6. Take `Cc1ccc(N=NN(C)C)cc1`: under setting [5], the survivor count is 0 of 6.

Turning to `CC(C)CCSc1nc(N)nc2nc[nH]c12`, the survivor count under setting [2] is given as 2 of 7 and the survivor count under setting [3] is reported as 0 of 7. In the case of `CCOC(=O)Sc1ncnc2nc[nH]c12`, the survivor count is on record as 0 of 6 (dose: 168.0 mg/kg/injection, vehicle: carboxymethylcellulose (CMC)); 0 of 6 (dose: 252.0 mg/kg/injection, vehicle: carboxymethylcellulose (CMC)); 0 of 6 (dose: 378.0 mg/kg/injection, vehicle: carboxymethylcellulose (CMC)). For `O=[N+]([O-])c1ccccc1CSc1ncnc2nc[nH]c12`, the survivor count under setting [3] was 0 of 7.

As to `CS(=O)(=O)OC[C@@H](O)[C@@H](O)COS(C)(=O)=O`, the T/C (dose: 62.5 mg/kg/injection, vehicle: carboxymethylcellulose (CMC)) was 125 % of control. As for `O=C(O)C1(NO)CCCC1`, the survivor count is listed as 2 of 6 (dose: 225.0 mg/kg/injection, vehicle: saline) and 0 of 6 under setting [10]. In the case of `c1ccc(CSc2ncnc3nc[nH]c23)nc1`, the survivor count is 0 of 7 under setting [9] and 0 of 7 under setting [10].

Regarding `CCCCCCCCCCCCO[P+](=O)OCCCCCCCCCCCC`, the survivor count (dose: 333.0 mg/kg/injection, vehicle: carboxymethylcellulose (CMC)) is listed as 0 of 7; the survivor count under setting [6] is listed as 2 of 7; the survivor count (dose: 750.0 mg/kg/injection, vehicle: carboxymethylcellulose (CMC)) is on record as 0 of 7.

As to `CCCNC(=NC)c1ccc(NC(=O)c2ccc(C(=O)Nc3ccc(C(=NC)NCCC)cc3)cc2)cc1`, under “dose: 24.0 mg/kg/injection, vehicle: saline”, the survivor count is on record as 0 of 7. As to `Nc1nc(N)c(N=O)c(Nc2ccc(Br)cc2)n1`, the survivor count is, setting by setting: (dose: 395.0 mg/kg/injection, vehicle: saline) 0 of 7; (dose: 580.0 mg/kg/injection, vehicle: saline) 0 of 7.

Consider `c1cc2n(n1)CCN2`, for which the survivor count (dose: 240.0 mg/kg/injection, vehicle: saline) is on record as 0 of 6. With `NCC(=O)NC1(C(=O)O)CCCC1` (H-Gly-[Ac5c]-OH), the survivor count (dose: 335.0 mg/kg/injection, vehicle: saline) is 2 of 8. On to `CCCCn1cnc2c(SC)nc(N)nc21`, for which the T/C under setting [7] was 125 % of control. Also, the survivor count (dose: 230.0 mg/kg/injection, vehicle: carboxymethylcellulose (CMC)) is given as 3 of 6.

For the compound `ClCCn1cnc2c(SCc3ccccc3Cl)ncnc21`, the survivor count (dose: 400.0 mg/kg/injection, vehicle: saline) is 3 of 6.
